Source: ChEMBL document CHEMBL3988442, “University of Dundee, Small-Polar-MMV Screening Library” (2021).

Sequences of proteins named here, by UniProt entry; tags and fusion partners are left off.
UniProt E9BF75, entry or part of it: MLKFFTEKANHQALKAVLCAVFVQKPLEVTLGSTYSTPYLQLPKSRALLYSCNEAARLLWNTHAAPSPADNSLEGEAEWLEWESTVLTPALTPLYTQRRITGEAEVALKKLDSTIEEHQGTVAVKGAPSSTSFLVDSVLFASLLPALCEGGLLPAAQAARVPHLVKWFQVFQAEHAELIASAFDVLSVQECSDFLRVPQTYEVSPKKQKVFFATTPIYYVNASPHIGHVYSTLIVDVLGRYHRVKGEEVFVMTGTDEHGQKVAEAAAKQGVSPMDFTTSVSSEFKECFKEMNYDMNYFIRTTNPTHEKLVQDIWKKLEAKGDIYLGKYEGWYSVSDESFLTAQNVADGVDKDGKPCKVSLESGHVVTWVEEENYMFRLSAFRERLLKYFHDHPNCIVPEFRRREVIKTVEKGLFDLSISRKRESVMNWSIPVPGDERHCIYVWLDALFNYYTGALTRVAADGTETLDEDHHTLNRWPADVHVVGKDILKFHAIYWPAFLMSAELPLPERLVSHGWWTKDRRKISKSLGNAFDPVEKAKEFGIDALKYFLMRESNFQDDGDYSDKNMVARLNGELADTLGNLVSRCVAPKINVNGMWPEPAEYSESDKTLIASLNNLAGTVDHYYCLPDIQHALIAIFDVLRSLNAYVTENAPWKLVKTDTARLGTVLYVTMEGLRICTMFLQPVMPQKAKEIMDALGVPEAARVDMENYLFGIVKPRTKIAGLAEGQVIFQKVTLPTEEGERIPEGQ

Results are percentages, as filed. The record does not define 0% and 100%; most values in the screen are far below 50% and negative numbers occur (in some assays of this library far below -100). Compounds were drawn at random from those tested, without regard to their results. A dash means the value is not listed here; it may have been measured.

LdMetRS: 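Methionyl-tRNA synthetase (putative), Leishmania donovani (UniProt E9BF75). Primary screen of methionyl-tRNA synthetase; the read-out is not stated. The test concentration is not given. Values are per cent inhibition. About 68,000 compounds were tested under these conditions; 0.035% (about 24) showed 50% or more at least once.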
Mtb heat-shock: 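Assay on Mycobacterium tuberculosis, filed only as a heat shock assay from Cornell; the read-out is not stated. The concentration is filed as 10 mM, unlikely as a test dose, so the dose is not known. The record gives no direction; compounds that gave an IC50 in retests scored well above the rest, so higher reads as stronger inhibition. Size under these conditions: about 69,000 compounds, about 930 of them at 50% or above in at least one test.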

| structure | LdMetRS | Mtb heat-shock |
|---|---|---|
| `CNC(=O)C(C)(C)N1CCC[C@H]1C(=O)NCCN1CCOCC1` | 2.198 | -30.77 |
| `CCN(Cc1ccncc1)CC1(O)CCN(C(=O)c2cccc(C)n2)C1` (stereo not drawn) | 10.93 | -0.7933 |
| `OCCN1CC2(CCN(c3ccccc3)C2)C1` | 2.256 | - |
| `Cc1c(C(C)NC2CCCC2)cnn1-c1ccc(F)cc1F` (stereo not drawn) | 2.211 | -11.54 |
| `CCN1CCC2(CC1)CN(C(=O)c1cccnc1)c1ccc(Cl)cc12` | 5.279 | - |
| `CC(C)c1noc(C(C)N2CCN(CCN3CCCC3=O)CC2)n1` (stereo not drawn) | 6.536 | 13.24 |
| `COCC(C)NC(=O)c1nnn(-c2ccc(Br)cc2)n1` (stereo not drawn) | -1.449 | -2.669 |
| `CC(NCc1cnc(N2CCOCC2)nc1)c1ccc(Cl)s1.Cl` (stereo not drawn) | - | -8.207 |
| `Cc1ncsc1C(=O)NCCNC(=O)OC(C)(C)C` | 11.49 | 16.35 |
| `Cl.O=C(NC1CCCC1)c1ccc(C2CCCNC2)nc1` (stereo not drawn) | - | -7.361 |
| `CN(C)C(=O)C1CCCN1CCCNC(=O)c1cccc2[nH]ncc12` (stereo not drawn) | 16.27 | 5.514 |
| `Cc1ccc(CN2CCNC(=O)C2CC(=O)N2CCSCC2)o1` (stereo not drawn) | 3.546 | 1.955 |
| `CN1CCC2(COCCN(Cc3ccc4c(c3)OCO4)C2)C1.O=C(O)C(F)(F)F.O=C(O)C(F)(F)F` (stereo not drawn) | - | -30.33 |
| `O=C(O)C(F)(F)F.[H][C@@]12CCN(C3CCCC3)C[C@]1([H])OCCN(Cc1ccc(OC)cc1)C2=O` | - | -11.53 |
| `Cc1cc(F)ccc1N1CCCC(NC(=O)CCc2ccncc2)C1` (stereo not drawn) | 19.81 | -9.236 |
| `CCN(CC)C1CCN(C(=O)c2cc(-n3cccn3)ccc2Cl)CC1` | 8.571 | 2.455 |
| `c1ccc2oc(CN3CCCC(Cn4cncn4)C3)nc2c1` (stereo not drawn) | 20.63 | -22.35 |
| `COc1c(C2CCCN2C(=O)c2cc(C)on2)c(C)nn1C` (stereo not drawn) | 11.68 | 0.1384 |
| `CC(CN1CCCC1=O)NC(=O)c1ccc(-c2ccco2)[nH]c1=O` (stereo not drawn) | 16.77 | 11.57 |
| `Cc1ccc(C(=O)N2CC[C@H]3[C@H]2CCN3CC2CCOCC2)cn1` | 12.09 | - |
| `CNc1cc(C2CCCN2C(=O)c2ccc(=O)[nH]n2)ccn1` (stereo not drawn) | 25.32 | - |
| `[H][C@@]12OCCN(Cc3ccsc3)[C@@]1([H])CC[C@H]2Oc1ccccn1` | - | -49.97 |
| `CCn1nc(C)c2ncnc(NCCn3cccn3)c21` | 11.17 | -5.027 |
| `Cn1ccnc1CN1CCC2(CC(=O)N(c3ccc4c(c3)OCO4)C2)C1.O=C(O)C(F)(F)F` (stereo not drawn) | - | -7.201 |
| `Cc1nc(NC2CCCC2)cc(C2CCN2C(=O)c2cccnc2)n1` (stereo not drawn) | 15.41 | 13.12 |
| `CCN(CC)S(=O)(=O)N1CCCN(CC2CCCO2)CC1` (stereo not drawn) | 1.075 | -8.593 |
| `Cc1ccc(NC(=O)CSCc2cccnc2)nc1` | 10 | 2.935 |
| `CCCC(=O)N1CCC(c2cc[nH]n2)C1` (stereo not drawn) | 8.924 | -0.5306 |
| `CN(Cc1ccncc1)C(=O)NCc1nnc2n1CCCCC2` | 10 | -13.39 |
| `O=C([C@H]1CCCO1)N1CCOC2(CCCN(c3ncccc3F)C2)C1` (stereo partly drawn) | 0.9615 | - |
| `Cc1cnccc1-c1cnn(CCNC(=O)c2cccnc2)c1C1CC1` | 11.39 | - |
| `O=C(NCCNc1ncccn1)c1ccc(Br)cc1` | 17.14 | 4.816 |
| `CCN(CC)CC1CN(Cc2ccc(C)s2)Cc2nccn2C1.O=C(O)C(F)(F)F.O=C(O)C(F)(F)F` (stereo not drawn) | - | -39.14 |
| `Cc1occc1C(=O)N1CCOC2(CCCC2)C1` | 10.92 | 5.438 |
| `CN1CCC2(C=C(C(=O)N(C)C)c3ccccc32)CC1` | 16.1 | 7.895 |
| `[H][C@@]12CCN(S(C)(=O)=O)CC[C@]1(C(=O)Nc1ccccc1)CCN2C(C)=O` | - | -6.071 |
| `CC(C(=O)Nc1ccc(C#N)cc1)N1CCc2ccccc21` (stereo not drawn) | 8.741 | -2.198 |
| `[H][C@@]12CCN(C3CCOCC3)C[C@@]1([H])O[C@@H](C(=O)N(C)C)C2` | - | 26.69 |
| `CC(C)Nc1cc(N2CCN(Cc3ccccc3)C(CCO)C2)ncn1` (stereo not drawn) | 7.521 | -10.73 |
| `Cc1ccc(C(=O)O)c(N2Cc3cnc(C(C)(C)C)nc3C2)n1` | 9.115 | 3.215 |
| `O=C1OCCN1CCNCC1(O)CCCN(CCC2CCCCC2)C1=O` (stereo not drawn) | 16.05 | 10.81 |
| `O=C(CSc1nnc(N2CCOCC2)s1)NCc1cccs1` | 14.21 | 23.98 |
| `O=C(CN1CCOC1=O)N1CCC2(CCc3ccccc32)CC1` | -5.08 | 1.837 |
| `CCc1nc2ccccc2c(=O)n1CC1(O)CCN(S(C)(=O)=O)CC1.Cl` | - | -6.31 |
| `CC(=O)N1CCC2(CC1)[C@@H]1CN(C(=O)N(C)C)C[C@@H]1C(=O)N2C` | 7.222 | - |
| `O=C1CCCCN1CCc1nc(C2(c3ccc(F)cc3)CCOC2)no1` (stereo not drawn) | 9.804 | -18.18 |
| `Cc1csc(N2CCCN(C3Cc4ccccc4C3)CC2)n1` | 14.21 | 9.112 |
| `Cc1ccc(S(=O)(=O)N2CCn3nc(C)nc3C2)c(Cl)c1` | 6.806 | 2.919 |
| `Cc1nc(C(NS(=O)(=O)N(C)C)c2ccccc2F)no1` (stereo not drawn) | 16.62 | -140.1 |
| `O=C(O)C(F)(F)F.[H][C@@]12COC[C@]1([H])[C@@H](OCC1CCOCC1)CN2Cc1ccoc1` | - | -14.39 |
| `COc1nc2c(cc1C(=O)N1C[C@H](N)C[C@H]1C(=O)NC(C)C)CCC2` | 16.81 | 4.804 |
| `O=C(NCC(F)(F)F)C(c1cccnc1)N1CCCC1` (stereo not drawn) | 17.01 | 7.632 |
| `CC(C)(NC(=O)Nc1cnn(CC2CCCO2)c1)c1nccs1` (stereo not drawn) | 23.08 | -17.18 |
| `[H][C@]12CN(C(=O)N(C)C)CCN1C[C@H](c1ccccc1)[C@H]2C(=O)OCC` | - | 2.667 |
| `O=C(O)c1cnc(N2CCCC2)nc1COc1ccccc1` | 10.3 | -3.788 |
| `COc1c(C)cnc(CN(C)C(=O)c2ccccn2)c1C` | 0.3436 | -9.654 |
| `[H][C@]12CCN(c3ccccc3)C[C@@]1([H])OCCN(C(=O)c1ccco1)C2` | - | 5.5 |
| `COc1ccc(C(=O)N(C)Cc2nnc3ccccn23)cc1` | 6.077 | -15.14 |
| `Cc1nc(-c2ccc(CNS(=O)(=O)N(C)C)cc2)ccc1C(N)=O` | 18.1 | 10.37 |
| `Cc1cc(CN2C[C@@H]3COC[C@@H](C(=O)N4CCCCO4)[C@@H]3C2)oc1C` | 3.483 | - |
| `COCC1CC2(CCN(CC3CC3)CC2)CN1Cc1csc(C)n1` (stereo not drawn) | 3.833 | - |
| `Cc1ccc(CNC(=O)c2nc3c(o2)CN(C(=O)c2cccnc2)C3)o1` | 20.74 | - |
| `Cc1cc(C)cc(CNC(c2ccccc2)c2nccn2C)c1` (stereo not drawn) | 17.46 | 112.3 |
| `CC(C)c1cccc(-n2cc(O)c(C(N)=O)n2)c1` | 13.75 | -30.74 |
| `COc1cccc(S(=O)(=O)N2CCC(O)(CN(C)C)C2)c1` (stereo not drawn) | 13.64 | -16.18 |

Repeated from the top, 8 entries:

| structure | LdMetRS | Mtb heat-shock |
|---|---|---|
| `CNC(=O)C(C)(C)N1CCC[C@H]1C(=O)NCCN1CCOCC1` | 2.198 | -30.77 |
| `CCN(Cc1ccncc1)CC1(O)CCN(C(=O)c2cccc(C)n2)C1` (stereo not drawn) | 10.93 | -0.7933 |
| `OCCN1CC2(CCN(c3ccccc3)C2)C1` | 2.256 | - |
| `Cc1c(C(C)NC2CCCC2)cnn1-c1ccc(F)cc1F` (stereo not drawn) | 2.211 | -11.54 |
| `CCN1CCC2(CC1)CN(C(=O)c1cccnc1)c1ccc(Cl)cc12` | 5.279 | - |
| `CC(C)c1noc(C(C)N2CCN(CCN3CCCC3=O)CC2)n1` (stereo not drawn) | 6.536 | 13.24 |
| `COCC(C)NC(=O)c1nnn(-c2ccc(Br)cc2)n1` (stereo not drawn) | -1.449 | -2.669 |
| `CC(NCc1cnc(N2CCOCC2)nc1)c1ccc(Cl)s1.Cl` (stereo not drawn) | - | -8.207 |